Data on 16 targets can be found in the supplement of paper PMC10849652.

By UniProt entry, the sequences of proteins in these tests, tags left out. Where a name states a change or a piece, a line headed by the entry shows the natural chain unless it says otherwise.
UniProt Q13011: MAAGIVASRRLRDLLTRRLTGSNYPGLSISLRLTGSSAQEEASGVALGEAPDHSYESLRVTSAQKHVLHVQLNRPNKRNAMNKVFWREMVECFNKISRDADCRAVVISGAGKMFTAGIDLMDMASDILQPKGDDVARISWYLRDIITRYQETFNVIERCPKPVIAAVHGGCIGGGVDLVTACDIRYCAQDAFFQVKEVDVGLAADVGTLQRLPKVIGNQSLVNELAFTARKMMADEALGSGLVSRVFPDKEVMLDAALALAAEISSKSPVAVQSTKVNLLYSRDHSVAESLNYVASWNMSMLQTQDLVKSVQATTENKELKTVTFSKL
UniProt Q9BVJ7: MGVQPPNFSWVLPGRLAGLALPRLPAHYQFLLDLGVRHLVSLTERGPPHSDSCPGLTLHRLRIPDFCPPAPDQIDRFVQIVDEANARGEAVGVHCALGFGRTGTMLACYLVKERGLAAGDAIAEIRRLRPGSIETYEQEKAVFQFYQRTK
UniProt Q9NP97, whole entry, looked up: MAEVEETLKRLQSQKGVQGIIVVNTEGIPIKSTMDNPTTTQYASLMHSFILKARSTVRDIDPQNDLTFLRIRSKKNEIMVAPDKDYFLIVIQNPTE
UniProt Q86TI2: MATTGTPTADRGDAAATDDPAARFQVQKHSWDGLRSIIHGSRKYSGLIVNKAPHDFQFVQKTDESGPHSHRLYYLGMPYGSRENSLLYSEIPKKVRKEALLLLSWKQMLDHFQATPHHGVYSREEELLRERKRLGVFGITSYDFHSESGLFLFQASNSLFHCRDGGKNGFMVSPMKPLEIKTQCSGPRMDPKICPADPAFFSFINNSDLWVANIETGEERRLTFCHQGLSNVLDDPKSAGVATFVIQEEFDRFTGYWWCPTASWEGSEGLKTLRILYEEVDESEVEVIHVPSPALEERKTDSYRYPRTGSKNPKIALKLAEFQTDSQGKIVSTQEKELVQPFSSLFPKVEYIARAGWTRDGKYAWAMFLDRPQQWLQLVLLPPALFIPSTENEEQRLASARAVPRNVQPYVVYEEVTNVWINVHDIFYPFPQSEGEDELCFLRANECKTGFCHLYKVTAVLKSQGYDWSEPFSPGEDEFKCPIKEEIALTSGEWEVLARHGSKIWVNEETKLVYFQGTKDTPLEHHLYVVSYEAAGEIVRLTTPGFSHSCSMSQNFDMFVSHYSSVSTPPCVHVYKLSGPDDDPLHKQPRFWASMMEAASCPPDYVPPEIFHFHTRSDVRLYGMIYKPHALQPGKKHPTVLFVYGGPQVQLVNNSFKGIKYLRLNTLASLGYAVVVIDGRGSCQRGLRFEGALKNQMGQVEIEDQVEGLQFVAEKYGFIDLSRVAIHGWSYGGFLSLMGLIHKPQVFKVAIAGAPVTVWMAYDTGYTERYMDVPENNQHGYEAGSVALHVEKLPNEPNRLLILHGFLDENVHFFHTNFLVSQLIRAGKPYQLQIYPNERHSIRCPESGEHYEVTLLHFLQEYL
UniProt P29692: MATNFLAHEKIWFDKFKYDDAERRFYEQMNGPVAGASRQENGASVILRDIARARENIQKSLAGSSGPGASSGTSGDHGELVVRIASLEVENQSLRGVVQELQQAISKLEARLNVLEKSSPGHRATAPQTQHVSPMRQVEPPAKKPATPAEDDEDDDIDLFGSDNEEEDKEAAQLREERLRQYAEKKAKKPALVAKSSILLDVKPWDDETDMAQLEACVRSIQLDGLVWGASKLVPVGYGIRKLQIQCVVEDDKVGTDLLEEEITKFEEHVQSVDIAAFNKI
UniProt P24534: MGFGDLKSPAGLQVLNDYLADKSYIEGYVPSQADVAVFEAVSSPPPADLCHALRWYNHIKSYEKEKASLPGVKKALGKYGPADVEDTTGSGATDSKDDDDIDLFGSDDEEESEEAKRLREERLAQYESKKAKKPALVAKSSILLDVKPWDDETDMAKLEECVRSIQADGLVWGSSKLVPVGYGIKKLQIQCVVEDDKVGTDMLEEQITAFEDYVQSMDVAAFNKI
UniProt P33316: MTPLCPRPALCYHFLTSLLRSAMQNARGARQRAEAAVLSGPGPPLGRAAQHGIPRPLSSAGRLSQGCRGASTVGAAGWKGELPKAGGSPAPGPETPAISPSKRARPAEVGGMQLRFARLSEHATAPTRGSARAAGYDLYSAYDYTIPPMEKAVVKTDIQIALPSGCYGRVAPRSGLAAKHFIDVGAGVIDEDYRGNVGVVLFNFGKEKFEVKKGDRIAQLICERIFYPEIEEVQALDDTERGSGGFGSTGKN
UniProt Q7L8W6: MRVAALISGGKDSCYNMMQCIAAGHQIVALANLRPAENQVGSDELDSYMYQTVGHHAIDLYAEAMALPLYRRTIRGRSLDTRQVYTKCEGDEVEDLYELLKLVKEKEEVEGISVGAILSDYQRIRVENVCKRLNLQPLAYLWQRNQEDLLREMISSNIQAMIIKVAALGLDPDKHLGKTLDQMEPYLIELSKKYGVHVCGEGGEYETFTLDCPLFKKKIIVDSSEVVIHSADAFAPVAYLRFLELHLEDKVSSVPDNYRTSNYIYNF
UniProt Q9H8V3: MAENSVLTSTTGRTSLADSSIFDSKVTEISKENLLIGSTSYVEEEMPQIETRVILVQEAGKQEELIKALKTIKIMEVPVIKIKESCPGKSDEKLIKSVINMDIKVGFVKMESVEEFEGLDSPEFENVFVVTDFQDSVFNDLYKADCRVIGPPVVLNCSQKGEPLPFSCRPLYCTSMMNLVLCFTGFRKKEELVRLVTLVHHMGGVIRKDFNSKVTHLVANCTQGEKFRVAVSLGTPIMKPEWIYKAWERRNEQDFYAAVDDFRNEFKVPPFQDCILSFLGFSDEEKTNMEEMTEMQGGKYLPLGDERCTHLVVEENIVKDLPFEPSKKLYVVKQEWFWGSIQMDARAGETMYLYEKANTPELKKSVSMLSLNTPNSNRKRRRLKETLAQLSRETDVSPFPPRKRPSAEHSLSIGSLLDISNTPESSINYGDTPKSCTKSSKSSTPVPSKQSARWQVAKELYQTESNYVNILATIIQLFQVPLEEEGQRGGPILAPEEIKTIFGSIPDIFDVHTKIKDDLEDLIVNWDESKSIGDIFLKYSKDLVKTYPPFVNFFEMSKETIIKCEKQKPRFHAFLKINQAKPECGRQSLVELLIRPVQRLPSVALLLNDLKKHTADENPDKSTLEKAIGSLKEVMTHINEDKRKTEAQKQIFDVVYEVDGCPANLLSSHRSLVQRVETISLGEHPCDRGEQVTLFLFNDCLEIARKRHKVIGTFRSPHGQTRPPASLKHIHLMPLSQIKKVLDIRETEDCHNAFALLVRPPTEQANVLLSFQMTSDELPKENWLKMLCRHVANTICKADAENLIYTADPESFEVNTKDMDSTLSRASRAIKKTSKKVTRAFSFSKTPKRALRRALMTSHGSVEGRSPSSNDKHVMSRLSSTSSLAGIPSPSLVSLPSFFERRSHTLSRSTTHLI
UniProt P51452: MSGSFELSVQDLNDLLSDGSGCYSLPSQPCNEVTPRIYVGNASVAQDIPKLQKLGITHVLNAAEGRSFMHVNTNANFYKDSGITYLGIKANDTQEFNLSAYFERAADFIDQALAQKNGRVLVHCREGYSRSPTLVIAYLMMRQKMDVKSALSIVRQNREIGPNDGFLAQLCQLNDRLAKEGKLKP
UniProt Q8N9N8: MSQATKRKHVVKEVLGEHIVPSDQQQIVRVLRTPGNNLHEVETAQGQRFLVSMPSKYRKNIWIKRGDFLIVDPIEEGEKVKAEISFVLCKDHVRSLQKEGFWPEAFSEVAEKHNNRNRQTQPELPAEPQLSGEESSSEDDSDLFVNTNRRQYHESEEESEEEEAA
UniProt O75521: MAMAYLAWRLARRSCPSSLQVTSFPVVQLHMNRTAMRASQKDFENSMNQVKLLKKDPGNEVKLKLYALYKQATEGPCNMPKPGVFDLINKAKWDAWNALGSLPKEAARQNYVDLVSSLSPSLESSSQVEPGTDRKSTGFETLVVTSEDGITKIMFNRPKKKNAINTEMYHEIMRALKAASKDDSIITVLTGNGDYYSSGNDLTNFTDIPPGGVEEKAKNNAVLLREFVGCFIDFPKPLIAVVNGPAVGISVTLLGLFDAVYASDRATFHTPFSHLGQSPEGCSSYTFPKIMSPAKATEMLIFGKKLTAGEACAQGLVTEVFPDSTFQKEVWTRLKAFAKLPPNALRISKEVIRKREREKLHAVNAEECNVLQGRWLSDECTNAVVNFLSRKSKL
UniProt Q99848: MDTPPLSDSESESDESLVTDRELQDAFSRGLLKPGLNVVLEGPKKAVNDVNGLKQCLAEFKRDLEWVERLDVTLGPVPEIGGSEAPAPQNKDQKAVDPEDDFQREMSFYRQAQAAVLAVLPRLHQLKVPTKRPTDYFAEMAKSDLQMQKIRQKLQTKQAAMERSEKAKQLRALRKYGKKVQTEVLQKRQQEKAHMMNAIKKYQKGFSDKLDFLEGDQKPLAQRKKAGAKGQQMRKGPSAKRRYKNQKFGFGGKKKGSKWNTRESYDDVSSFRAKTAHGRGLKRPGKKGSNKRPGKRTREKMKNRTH

The other results are listed elsewhere or left out.

Compound in this experiment: C1=CC2=NC=CN=C2C=C1/C=C/3\C(=O)NC(=O)S3
Briefly: log2 fold change, soluble protein after heating vs DMSO (PISA); higher = thermal stabilisation; K562 lysate, 10 uM; active = over 0.2 and 3.5 SD of the protein, either way, in both replicates (recomputed). An outline of the steps:
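Quantification was by TMTpro 16plex LC-MS/MS with equalised channel sums, applied to the supernatant after 21,000xg for 90 min. Samples were crude K562 extract at 1 mg/mL protein in PBS pH 7.4 with 1 mM MgCl2, treated with 10 μM compound for 30 min, heated for 3 min across 48°C-58°C, pooled and brought to 0.5% NP-40 at 4°C. Values are log-two fold changes in thermal stability relative to solvent controls, from duplicates.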
On to ECH1 (UniProt Q13011), for which the log2 fold change was inactive: -0.022.
The value for DUSP23 (UniProt Q9BVJ7) was inactive: 0.002; that for DYNLRB1 (UniProt Q9NP97) was inactive: -0.04; that for DPP9 isoform 2 (UniProt Q86TI2) was inactive: -0.003.
Regarding DPP7 (UniProt Q9UHL4), the log2 fold change is inactive: -0.033.
As to EEF1D isoform 2 (UniProt P29692), the log2 fold change is inactive: -0.008.
Regarding EEF1B2 (UniProt P24534), the log2 fold change was inactive: 0.
Regarding DUT (UniProt P33316), the log2 fold change is inactive: 0.008.
To EED, A0A5F9ZI63 belongs inactive: -0.019; to DPH6 (UniProt Q7L8W6), inactive: -0.045.
To ECT2 (UniProt Q9H8V3) belongs inactive: 0.044; to DUSP3 (UniProt P51452), inactive: -0.027; to DYNC1H1 (UniProt Q14204), inactive: -0.019.
The value for EIF1AD (UniProt Q8N9N8) was inactive: -0.017; that for ECI2 (UniProt O75521) was inactive: 0.022; that for EBNA1BP2 (UniProt Q99848) was inactive: -0.008.
